Data: the supplement of paper PMC4604168 (melanoma cell lines)
The list shows a part of the results. Many values rest on one well or one pass, so single values are uncertain.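 Imaging used 1,536-well plates; nuclei positive for cleaved PARP by antibody were divided by total DNA-stained nuclei to yield the apoptosis fraction. Doses for screening kept most cells viable, and cell lines differ markedly in resting and induced cleaved-PARP levels.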

Experiments:
Assay in all cases: cleaved PARP positive nuclei fraction relative to DMSO control; melanoma cells; higher = more apoptosis
Conditions in all cases: library dose: low library concentration; 72 h
[1] = test system: 501Mel
[2] = test system: A101D
[3] = test system: A2058
[4] = test system: A375
[5] = test system: C32
[6] = test system: CBRC008 (line from a melanoma biopsy)
[7] = test system: CBRC013 (line from a melanoma biopsy)
[8] = test system: CBRC014 (line from a melanoma biopsy)
[9] = test system: CBRC016 (line from a melanoma biopsy)
[10] = test system: CBRC017 (line from a melanoma biopsy)
[11] = test system: COLO792
[12] = test system: COLO800
[13] = test system: COLO829
[14] = test system: G361
[15] = test system: IPC-298
[16] = test system: IST-MEL1
[17] = test system: LB2518-MEL
[18] = test system: LOXIMVI
[19] = test system: MEL-HO

| SMILES | cleaved PARP positive nuclei fraction [1] [%] | cleaved PARP positive nuclei fraction [2] [%] | cleaved PARP positive nuclei fraction [3] [%] | cleaved PARP positive nuclei fraction [4] [%] | cleaved PARP positive nuclei fraction [5] [%] | cleaved PARP positive nuclei fraction [6] [%] | cleaved PARP positive nuclei fraction [7] [%] | cleaved PARP positive nuclei fraction [8] [%] | cleaved PARP positive nuclei fraction [9] [%] | cleaved PARP positive nuclei fraction [10] [%] | cleaved PARP positive nuclei fraction [11] [%] | cleaved PARP positive nuclei fraction [12] [%] | cleaved PARP positive nuclei fraction [13] [%] | cleaved PARP positive nuclei fraction [14] [%] | cleaved PARP positive nuclei fraction [15] [%] | cleaved PARP positive nuclei fraction [16] [%] | cleaved PARP positive nuclei fraction [17] [%] | cleaved PARP positive nuclei fraction [18] [%] | cleaved PARP positive nuclei fraction [19] [%] |
| --- | --- | --- | --- | --- | --- | --- | --- | --- | --- | --- | --- | --- | --- | --- | --- | --- | --- | --- | --- |
| Nc1ncn([C@H]2C[C@H](O)[C@@H](CO)O2)c(=O)n1 [decitabine] + O=C(Nc1cccc(Cl)c1)Nc1ncc(CCNc2ncnc3ccsc23)s1 [SNS314] (first compound 0.1 µM, partner dose 0.0008 µM) | 146 | 79.1 | 78.1 | 141 | 105 | 128 | 121 | 102 | 141 | 113 | 247 | 164 | 61.8 | 94.1 | 149 | 178 | 253 | 17.7 | 75.8 |
| CN1CCN(c2ccc3nc(-c4c(N)c5c(F)cccc5[nH]c4=O)[nH]c3c2)CC1 [Dovitinib] + Cc1ccc(NC(=O)c2cccc(N(C)C)c2)cc1NC(=O)c1ccc(O)cc1 [ZM336372] (first compound 0.1 µM, partner dose 2 µM) | 112 | 101 | 125 | 150 | 150 | 265 | 84.8 | 107 | 89.2 | 112 | 92 | 65.6 | 108 | 117 | 234 | 16.2 | 130 | 13.6 | 46.2 |
| CS(=O)(=O)CCNCc1ccc(-c2ccc3ncnc(Nc4ccc(OCc5cccc(F)c5)c(Cl)c4)c3c2)o1 [lapatinib] + CN(NC(=O)CC(=O)NN(C)C(=S)c1ccccc1)C(=S)c1ccccc1 [STA4783] (first compound 0.8 µM, partner dose 0.006 µM) | 251 | 202 | 196 | 2000 | 178 | 1510 | 131 | 510 | 189 | 228 | 69.4 | 45.2 | 766 | 179 | 46.2 | 177 | 194 | 110 | 146 |
| O=C(O)c1ccc2c(c1)nc(Nc1cccc(Cl)c1)c1ccncc12 + Cn1cncc1[C@@](N)(c1ccc(Cl)cc1)c1ccc2c(c1)c(-c1cccc(Cl)c1)cc(=O)n2C [tipifarnib] (first compound 0.4 µM, partner dose 0.01 µM) | 93.5 | 79.9 | 150 | 139 | 74.8 | 60.2 | 150 | 132 | 72.7 | 187 | 128 | 45.1 | 111 | 221 | 154 | 124 | 91.5 | 92.7 | 99.5 |
| CN1CCN(c2ccc3nc(-c4c(N)c5c(F)cccc5[nH]c4=O)[nH]c3c2)CC1 [Dovitinib] + COc1cc(Nc2ncc(F)c(Nc3ccc4c(n3)NC(=O)C(C)(C)O4)n2)cc(OC)c1OC [Tamatinib] (first compound 0.1 µM, partner dose 0.4 µM) | 230 | 49.7 | 33.1 | 101 | 70.8 | 277 | 145 | 101 | 174 | 180 | 113 | 108 | 170 | 160 | 164 | 47.3 | 117 | 128 | 30.3 |
| CS(=O)(=O)CCNCc1ccc(-c2ccc3ncnc(Nc4ccc(OCc5cccc(F)c5)c(Cl)c4)c3c2)o1 [lapatinib] + CN(C)S(=O)(=O)c1ccc2c(c1)/C(=C/c1cc3c([nH]1)CCCC3)C(=O)N2 [SU6656] (first compound 0.8 µM, partner dose 0.4 µM) | 177 | 452 | 367 | 126 | 93.7 | 61.9 | 229 | 99.5 | 125 | 59.2 | 154 | 152 | 38.4 | 90.3 | 43 | 110 | 44.5 | 347 | 132 |
| Cn1c(=O)n(-c2ccc(C(C)(C)C#N)cc2)c2c3cc(-c4cnc5ccccc5c4)ccc3ncc21 + OCCn1cc(-c2cnc3nnn(Cc4ccc5ncccc5c4)c3n2)cn1 [PF04217903] (first compound 0.004 µM, partner dose 1 µM) | 49.2 | 93.3 | 107 | 75.9 | 50.6 | 100 | 67.6 | 89.2 | 137 | 101 | 105 | 36.3 | 105 | 120 | 59.8 | 193 | 148 | 66.2 | 78.1 |
| Nc1ncn([C@H]2C[C@H](O)[C@@H](CO)O2)c(=O)n1 [decitabine] + CN(C)S(=O)(=O)c1ccc2c(c1)/C(=C/c1cc3c([nH]1)CCCC3)C(=O)N2 [SU6656] (first compound 0.1 µM, partner dose 0.4 µM) | 101 | 213 | 137 | 124 | 48.7 | 182 | 118 | 99.1 | 152 | 88.2 | 183 | 118 | 127 | 192 | 67.6 | 121 | 53.1 | 19.3 | 85.5 |
| Nc1nc(F)nc2c1ncn2[C@@H]1O[C@H](CO)[C@@H](O)[C@@H]1O [fludarabine] + O=C(CCCCCCC(=O)Nc1ccccc1)NO [vorinostat] (first compound 0.2 µM, partner dose 0.08 µM) | 3830 | 77.3 | 194 | 7330 | 144 | 72.6 | 162 | 95 | 132 | 180 | 104 | 179 | 80.6 | 147 | 46.3 | 205 | 41 | 141 | 155 |
| CC(C)C[C@H](NC(=O)[C@H](Cc1ccccc1)NC(=O)c1cnccn1)B(O)O [Bortezomib] + NC(=O)Nc1cc(-c2cccc(F)c2)sc1C(=O)N[C@H]1CCCNC1 [AZD7762] (first compound 0.001 µM, partner dose 0.02 µM) | 185 | 234 | 141 | 131 | 134 | 1200 | 82.3 | 127 | 732 | 159 | 58.5 | 194 | 181 | 1330 | 105 | 30.3 | 209 | 25.7 | 137 |
| CN1CCN(c2ccc3nc(-c4c(N)c5c(F)cccc5[nH]c4=O)[nH]c3c2)CC1 [Dovitinib] + CO[C@@H]1[C@H](N(C)C(=O)c2ccccc2)C[C@H]2O[C@]1(C)n1c3ccccc3c3c4c(c5c6ccccc6n2c5c31)C(=O)NC4 [Midostaurin] (first compound 0.1 µM, partner dose 0.08 µM) | 88.6 | 99.8 | 141 | 112 | 100 | 163 | 169 | 90.1 | 181 | 106 | 153 | 192 | 77.6 | 87 | 90.5 | 65.8 | 97.5 | 77.7 | 71.1 |
| CNC(=O)c1cc(Oc2ccc(NC(=O)Nc3ccc(Cl)c(C(F)(F)F)c3)cc2)ccn1 [sorafenib] + O=C(CCCCCCC(=O)Nc1ccccc1)NO [vorinostat] (first compound 0.4 µM, partner dose 0.08 µM) | 77.2 | 79.4 | 76.4 | 60.3 | 124 | 89.5 | 89.9 | 77.3 | 44.9 | 86.7 | 47.3 | 119 | 53.5 | 162 | 49.6 | 104 | 42.6 | 26.5 | 62.5 |
| Nc1ccn([C@@H]2O[C@H](CO)[C@@H](O)C2(F)F)c(=O)n1 [gemcitabine] + CN(NC(=O)CC(=O)NN(C)C(=S)c1ccccc1)C(=S)c1ccccc1 [STA4783] (first compound 0.0004 µM, partner dose 0.006 µM) | 320 | 209 | 52.5 | 984 | 99.4 | 887 | 104 | 575 | 481 | 221 | 120 | 276 | 270 | 73.7 | 110 | 129 | 59.8 | 53.1 | 106 |
| Nc1ncn([C@H]2C[C@H](O)[C@@H](CO)O2)c(=O)n1 [decitabine] + O=C(O)c1ccc(-c2c[nH]c3ncc(-c4ccccc4)cc23)cc1C1CCCC1 [GSK650394] (first compound 0.1 µM, partner dose 0.16 µM) | 190 | 256 | 112 | 170 | 164 | 226 | 76.5 | 90.6 | 185 | 74.1 | 36.8 | 76 | 66.6 | 172 | 138 | 109 | 101 | 181 | 173 |
| Nc1ccn([C@@H]2O[C@H](CO)[C@@H](O)C2(F)F)c(=O)n1 [gemcitabine] + C=CCn1c(=O)c2cnc(Nc3ccc(N4CCN(C)CC4)cc3)nc2n1-c1cccc(C(C)(C)O)n1 [MK1775] (first compound 0.0004 µM, partner dose 0.02 µM) | 168 | 114 | 95.6 | 137 | 59.4 | 143 | 110 | 157 | 251 | 163 | 152 | 36.9 | 61.9 | 111 | 106 | 216 | 64.2 | 90.4 | 144 |
| C[C@@H](Oc1cc(-c2cnn(C3CCNCC3)c2)cnc1N)c1c(Cl)ccc(F)c1Cl [Crizotinib] + CC1(C)NC(=O)N(c2ccc([N+](=O)[O-])c(C(F)(F)F)c2)C1=O [nilutamide] (first compound 0.2 µM, partner dose 1 µM) | 99.3 | 127 | 113 | 39.4 | 69.4 | 110 | 136 | 87.2 | 86.4 | 82.1 | 80.9 | 162 | 98 | 97.3 | 196 | 172 | 110 | 21 | 116 |

A second format for part of the listing above:
SMILES,cleaved PARP positive nuclei fraction [1] [%],cleaved PARP positive nuclei fraction [2] [%],cleaved PARP positive nuclei fraction [3] [%],cleaved PARP positive nuclei fraction [4] [%],cleaved PARP positive nuclei fraction [5] [%],cleaved PARP positive nuclei fraction [6] [%],cleaved PARP positive nuclei fraction [7] [%],cleaved PARP positive nuclei fraction [8] [%],cleaved PARP positive nuclei fraction [9] [%],cleaved PARP positive nuclei fraction [10] [%],cleaved PARP positive nuclei fraction [11] [%],cleaved PARP positive nuclei fraction [12] [%],cleaved PARP positive nuclei fraction [13] [%],cleaved PARP positive nuclei fraction [14] [%],cleaved PARP positive nuclei fraction [15] [%],cleaved PARP positive nuclei fraction [16] [%],cleaved PARP positive nuclei fraction [17] [%],cleaved PARP positive nuclei fraction [18] [%],cleaved PARP positive nuclei fraction [19] [%]
"CS(=O)(=O)CCNCc1ccc(-c2ccc3ncnc(Nc4ccc(OCc5cccc(F)c5)c(Cl)c4)c3c2)o1 [lapatinib] + CN(NC(=O)CC(=O)NN(C)C(=S)c1ccccc1)C(=S)c1ccccc1 [STA4783] (first compound 0.8 µM, partner dose 0.006 µM)",251,202,196,2000,178,1510,131,510,189,228,69.4,45.2,766,179,46.2,177,194,110,146
"O=C(O)c1ccc2c(c1)nc(Nc1cccc(Cl)c1)c1ccncc12 + Cn1cncc1[C@@](N)(c1ccc(Cl)cc1)c1ccc2c(c1)c(-c1cccc(Cl)c1)cc(=O)n2C [tipifarnib] (first compound 0.4 µM, partner dose 0.01 µM)",93.5,79.9,150,139,74.8,60.2,150,132,72.7,187,128,45.1,111,221,154,124,91.5,92.7,99.5
